Some of the results follow.
System: T1, CTL2-GFP (C. trachomatis L2/434/Bu, GFP-expressing)
T1 construct: L2/434/Bu, GFP-expressing
Parameters: species or system HeLa; Intracellular C. trachomatis growth in HeLa cells, bulk GFP fluorescence relative to DMSO
Details: bulk GFP, single well; 28.5 h, 10 µM; inhibitor

SMILES | % of control remaining [%]
CN1CCN(c2ccc(NC(=O)c3ccc(OCc4ccccc4)cc3)cc2Cl)CC1 [CBK269080] | 103.156
CC(C)n1cc(CN2CCNC(=O)C2c2ccccc2C(F)(F)F)nn1 (stereo not shown) [CBK304732] | 87.7873
CCOC(=O)c1c(NC(=O)Cn2cnc([N+](=O)[O-])n2)sc2c1CCC2 [CBK263042] | 100
CN1CCN(N/C=C2/C(=O)N(c3ccc([N+](=O)[O-])cc3)N=C2c2ccccc2)CC1 [CBK262763] | 129.607
Cc1ccc([N+](=O)[O-])cc1/C=C(/C#N)c1nc2ccccc2s1 [CBK267085] | 93.6714
CSc1nc2ccccc2c2nc(-c3ccncc3)nn12 [CBK288566] | 150.545
CCOc1cc(C=Cc2cc(C(=O)O)c3ccccc3n2)ccc1OC(F)F [CBK296952] | 126.455
O=C(Nc1ccc2nonc2c1)N1CCOCC1 [CBK057530] | 147.483
O=C(NCC1CCCO1)c1cc(S(=O)(=O)N2CCOCC2)c(Cl)cc1Cl (stereo not shown) [CBK269691] | 128.773
Cc1ccnc(Sc2nc3c(c(=O)[nH]c(=O)n3C)n2CCCc2ccccc2)n1 [CBK269353] | 132.408
Cc1ccc(C(=O)N(C)C2CCCCC2)cc1C [CBK083667] | 105.445
Cn1c(CN2CCN(C3CCCC3)C(=O)C2)nc2ccccc21 [CBK281577] | 94.3741
CC(=O)N1CCc2c(nc(N(C)C)nc2NCCCOC(C)C)C1 [CBK306745] | 120.59
Cc1ccc(C2C3=C(CC(C)(C)CC3=O)Nc3[nH][nH]c(=O)c32)o1 (stereo not shown) [CBK288147] | 117.616
O=C(O)CCc1ccc(-c2cc(N3CCN(c4ccccn4)CC3)ncn2)cc1 [CBK037821] | 101.046
COc1cc(C2NC(C(=O)O)Cc3c2[nH]c2ccccc32)cc(OC)c1OC (stereo not shown) [CBK219193] | 94.5791
CNC(=O)c1cccc(NC(=O)c2cc(Br)cnc2NCC2CC2)c1 [CBK076380] | 90.3637
CC(=O)c1ccc(N(C)C)cc1 [CBK033830] | 111.073
Cc1ccccc1OCC(=O)N1CC(=O)Nc2ccccc21 [CBK300535] | 124.727
Clc1ccc(COc2cc(N3CCCN(CC4CC4)CC3)ncn2)cc1Cl [CBK084070] | 144.419
CCOc1ccc(S(=O)(=O)N(CC)CC(=O)O)cc1C [CBK269770] | 146.602
CCc1nnc(NS(=O)(=O)c2ccc(NC(=S)NC(=O)c3ccco3)cc2)s1 [CBK018917] | 15.0642
CC(=O)c1c(C)nn2c3ccccc3n(CCN3CCOCC3)c12 [CBK262709C] | 101.485
O=C(CSc1ccccc1[N+](=O)[O-])Oc1ccccc1 [CBK265501] | 112.723
CCn1c(C2CCN(C(=O)CCCn3cncn3)CC2)nn(C)c1=O [CBK307326] | 89.8258
Cc1cc(C)c2[nH]c(C(=O)NCc3c(C)n[nH]c3C)c(C)c2c1 [CBK283254] | 112.607
CCN(CC)Cn1nc(Nc2ccccc2)n(-c2ccccc2)c1=S [CBK261672] | 100

A few values from the results shown.
Value of CNC(=O)c1cccc(NC(=O)c2cc(Br)cnc2NCC2CC2)c1 [CBK076380] under % of control remaining [%]: 90.3637
Value of CCc1nnc(NS(=O)(=O)c2ccc(NC(=S)NC(=O)c3ccco3)cc2)s1 [CBK018917] under % of control remaining [%]: 15.0642
Value of CC(=O)c1c(C)nn2c3ccccc3n(CCN3CCOCC3)c12 [CBK262709C] under % of control remaining [%]: 101.485

Additional entries.

SMILES | % of control remaining [%]
Cc1cccc(N2CCN(CCCC(c3ccc(F)cc3)c3ccc(F)cc3)CC2)n1 [CBK025113C] | 104.936
O=S1(=O)CCC(SCc2ccccc2)C1 (stereo not shown) [CBK019237] | 142.706
O=C(O)c1cc2oc3ccccc3c3ccccc3oc2cc1C(=O)Nc1cccc([N+](=O)[O-])c1 [CBK265500] | 120.283
O=c1c2cnn(-c3ccccc3)c2nc(Cc2ccccc2)n1-c1cccc2ccccc12 [CBK262316] | 121.395
CC1CCC(NC(=O)CN2C3CCC2CC(O)(c2ccco2)C3)CC1 (stereo not shown) [CBK284036] | 131.225
NC(=O)CN1CC2(CCN(Cc3ccc(Cl)c(Cl)c3)CC2)c2ccccc21 [CBK126775] | 102.02
CCOC(=O)N1CCN(S(=O)(=O)c2ccc3oc(=O)ccc3c2)CC1 [CBK305870] | 114.416
Cc1cc(NS(=O)(=O)c2ccc3oc(=O)ccc3c2)n(C)n1 [CBK067250] | 128.636
O=C(CC1C(=O)N(c2cccc(Cl)c2)C(=O)N1CCc1cccs1)Nc1ccccc1 (stereo not shown) [CBK267499] | 121.399
O=c1[nH]c(=O)c2cc(S(=O)(=O)NCCN3CCc4ccccc43)ccc2[nH]1 [CBK286360] | 134.866
Oc1cccc2ccc(/C=C/c3ccc(-c4ccccc4Cl)o3)nc12 [CBK264445] | 124.976
CC(=O)N1CCCc2cc(C(O)CN3CCN(c4cccc(C)c4)CC3)ccc21 (stereo not shown) [CBK286457] | 110.146
O=c1cc(CN2CCC[C@@H]2CN2CCCC2)[nH]c(=O)[nH]1 [CBK149108] | 92.78
O=C(O)COc1ccc2c(=O)c(Oc3ccc(Cl)cc3)c(C(F)(F)F)oc2c1 [CBK296087] | 126.147
O=C1N[C@@H]2CCN(C(=O)Cc3ccc(O)cc3)C[C@@H]2C/C=C/CCOc2ccccc21 [CBK292043] | 122.304
CCn1nc(C(C)C)cc1C(=O)NCCN1CCC(C)CC1 [CBK282107] | 131.847
O=C(Nc1cc2ccccc2c(Br)n1)N[C@@H]1C[C@H]1c1ccccc1 [CBK063276] | 100
CCCC12CN3CC(C)(CN(C1)C31C(=O)Nc3ccc(C)cc31)C2=O (stereo not shown) [CBK268491] | 102.305
CS(=O)(=O)N(CC(=O)Nc1ccccc1C(F)(F)F)Cc1ccc(Cl)cc1 [CBK267854] | 130.851
Cc1ccccc1C1(O)CCN(CC(O)c2ccccc2)CC1 (stereo not shown) [CBK282491] | 131.726
Cc1ncc(CN2CCCC(Cc3nc4ccccc4[nH]3)C2)s1 (stereo not shown) [CBK281902] | 130.397
Cc1ccc(C)c2nc3c(cc12)CN(C1CC1)C(=O)CO3 [CBK282858] | 114.827
CN(C)c1ccc(/C=C2/C(=N)N3N=C(c4ccccc4Cl)SC3=NC2=O)cc1 [CBK097554] | 137.24
CC(C)/N=C1/N[C@@H]2CS(=O)(=O)C[C@H]2O1 [CBK019692G] | 134.625
O=C1CC[C@@H](NCc2ccoc2)[C@H](c2cc(F)cc(F)c2)N1 [CBK282912] | 106.518
CC1CCCN(Cc2ccccc2[N+](=O)[O-])C1 (stereo not shown) [CBK261862] | 82.1864
O=C(NC(Cc1ccsc1)c1nccs1)C1CC2C=CC1O2 (stereo not shown) [CBK285096] | 105.672

SMILES | % of control remaining [%]
COc1cccc(C2(O)CCCC3CN(C(C)=O)CC32)c1 (stereo not shown) [CBK283242] | 122.989
CCCc1cc(C(N)=O)cc(CCC)c1OCC [CBK015537] | 89.3318
COc1cc(OC)cc(C(=O)Nc2cc(C)c3c(=O)oc4ccccc4c3n2)c1 [CBK291221] | 115.863
CC1(C)CC(=O)C2=C(C1)Nc1ncnn1C2c1ccccc1F (stereo not shown) [CBK266446] | 92.7517
C[N+]1(c2ccccc2)CCC(N)=N1 (stereo not shown) [CBK262213I] | 103.047
Cc1cccc(-c2noc(C)c2C(=O)NCCn2ccnc2C)c1 [CBK282633] | 97.6758
CC(C)Oc1cncc(Cl)n1 [CBK113321] | 106.674
Cc1onc(-c2ccccc2)c1C(=O)NCc1ccccc1 [CBK200116] | 111.167
Cc1ccc(CN(CCN(C)C)Cc2c(C)nn(C(C)C)c2C)o1 [CBK283235] | 129.423
O=C(O)CCSc1cccc(C(F)(F)F)c1 [CBK012986] | 105.769
O=C(CN(c1ccccc1)S(=O)(=O)c1ccccc1[N+](=O)[O-])Nc1ccccc1 [CBK263777] | 105.856
COc1ccc(C(=O)NC(NC(=S)Nc2cccc3cccnc23)C(Cl)(Cl)Cl)cc1 (stereo not shown) [CBK261028] | 54.8995
CCOc1ccc(NC(=O)c2ccc(S(=O)(=O)N(C)C)cc2)c([N+](=O)[O-])c1 [CBK263396] | 124.816
O=c1n(-c2ccc(OC(F)(F)F)cc2)ccn1S(=O)(=O)c1ccccc1 [CBK106655] | 100
O=c1[nH]c2c(-c3ccccc3)nnn2c2ccccc12 [CBK288047] | 123.491
CN(c1ncc(-c2cc3ccccc3o2)cc1C(=O)NCC(F)(F)F)S(C)(=O)=O [CBK106479] | 134.095
CC(C)(C)OC(=O)N1CCC(NCc2ccccn2)CC1 [CBK304603] | 123.411
CCOC(=O)N1CCC(NC(=O)N2CCCCC2CO)CC1 (stereo not shown) [CBK155991] | 106.129
CC(=O)Nc1cc(C(=O)CSc2nnnn2-c2ccc(C)c(C)c2)ccc1O [CBK295143] | 165.141
COc1cc(C2CC(=O)N(c3cc(C)on3)C(=O)C2)cc(OC)c1OC [CBK006810] | 140.212
COc1ccccc1-c1nccnc1NCc1cc(OC)c(OC)c(OC)c1 [CBK036642] | 187.423
CCOc1ccc2nc(SCC(=O)Nc3c(C)n(C)n(-c4ccccc4)c3=O)sc2c1 [CBK267229] | 118.286
Cc1c(C(=O)N(C)CC(C)C)nnn1-c1ccc2ncccc2c1 [CBK305161] | 98.0072
O=C(CSc1nnc(-c2ccco2)[nH]1)c1ccc(O)cc1O [CBK264392] | 118.745
O=C(Nc1cc(Cl)nc(Cl)c1)N(Cc1ccc(-c2ccccc2)cc1)CC1CCNCC1 [CBK049794] | 37.4504

Reference: article PMC12040169 (PLOS Biology, 2025)
